Our source for the growth estimate values is the supplement of paper PMC5949888.

Most values lie at the floor of the assay. Slopes are relative: functional sequences can read slightly below zero.

This data set relates to Saccharomyces cerevisiae PS128 hsf1 delta, HSF1(1-493) fusion. Nature of the data set: growth estimate (transactivation domain function in HSF1 fusion, heat-shock survival) (a.u. (slope of normalised read count over time)); higher = stronger growth at 37°C, i.e. more transactivation activity. Conditions: library: random library. On the procedure:
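Random 60-nt DNA library encoding peptides of up to 20 aa, fused to the C-terminus of yeast HSF1 residues 1-493 (C-terminal TAD deleted) and expressed from the native HSF1 promoter on a CEN plasmid in hsf1-deleted S. cerevisiae PS128. Cells were selected at 37°C on -trp 5-FOA plates for 0, 2, 4, 6 and 8 days and amplicons were sequenced. Growth estimate is the slope of a robust linear fit of total-sum-normalised read counts (normalised to the first time point) over time, using at least 2 replicates. Sequences are classed functional (TAD activity) above a threshold of -0.13, set from stop-codon control sequences.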
As for ILAPSSRHKTPCPVAGETSR, the growth estimate is < -0.25. For the substance SRAMI, the growth estimate is < -0.25. As for RIALTSGRGRFAEVGLRIWS, the figure is < -0.25. Regarding CCSIAILGAYDCIEDVELRR, the growth estimate is < -0.25.

As for GVCCVRIIWDVWPLEQRRTP, the growth estimate was < -0.25. In the case of IVGFGLSYARVYIGRQLTP, the growth estimate was < -0.25. With AAARKTAPVVRKGRLSLCLL, the growth estimate was < -0.25.

For RIRGRSWCLVESSHRACRTA, the growth estimate was < -0.25. Regarding RMGLWGTMASQS, the growth estimate is < -0.25.

As for SVTPRTRIHVGMGRLVPINA, the growth estimate was < -0.25.

As for PIIAGTRSGSSRRRPRQNAA, the growth estimate is < -0.25. Consider KERVLSRDGQWYRGRIRC, for which the growth estimate is < -0.25.

On to TGS, for which the growth estimate is < -0.25.

With RCAGMILKCS, the growth estimate was < -0.25. For VNPDAAPRKNRI, the growth estimate was < -0.25.

In the case of KDSRSELERKFRGLPIVLLA, the growth estimate was < -0.25. PIVRRAVYKRIMTWPSGRVG: the growth estimate was < -0.25. RGTAQKG: the growth estimate is < -0.25. Regarding IIYECSFPQRTDDVGIGTYR, the growth estimate is < -0.25. In the case of LIGRWEKWGHGNTVKLITTY, the growth estimate was < -0.25. Turning to RIKFV, the growth estimate is 0.598.

Take LRTRPSLDA: the growth estimate was < -0.25.

For TVGT, the growth estimate is < -0.25. LKGTRS: the growth estimate is < -0.25. As for VPRGDCKCRG, the figure is < -0.25; as for MCLLAS, < -0.25; as for YDGARPITAIEY, < -0.25. For LCPKVLREIVGRTPLGKWAS, the growth estimate was < -0.25. In the case of AGGRCPAFLSDHSE, the growth estimate is < -0.25. For LENRTYDRAARPHVRFKG, the growth estimate is < -0.25. Regarding GTAEHRLAEQ, the growth estimate was < -0.25.

In the case of YKAEF, the growth estimate was < -0.25. As for HLPKDASHTP, the figure is < -0.25. With RCSRKYLKQRSN, the growth estimate was < -0.25.

Regarding LSRGAARLKLVAH, the growth estimate was < -0.25.

As for RMGLRPGTYWGVRRRGPLAV, the growth estimate is < -0.25. For the substance YRVFSVAVTYATESWYILHR, the growth estimate was < -0.25. The value for DSCLGRGRYCVLVMLDLSPG was < -0.25; that for DHASQCKRAMYQSFTPEPST was < -0.25.

Turning to YRCHRPMS, the growth estimate was < -0.25. Take RNVISSY: the growth estimate is < -0.25. As to GYPTIPRRS, the growth estimate was < -0.25. With RAI, the growth estimate is < -0.25. For the substance RGTT, the growth estimate is < -0.25. Turning to EVVYFSILSGFF, the growth estimate was < -0.25.

For the substance LDEHRARSQGSSTVTG, the growth estimate is < -0.25.

Consider LMKLSGSGEDQCPTEVAVTT, for which the growth estimate is < -0.25.

DGLGDPAATC: the growth estimate is < -0.25. As for KERVPSLCPRMG, the growth estimate was < -0.25. For RSTKIPKVVHGGGATD, the growth estimate was < -0.25. For the substance VQAYWFKVHRYSGYRGLDAI, the growth estimate was < -0.25. With YCRTASWWDTDRD, the growth estimate is < -0.25. As for LRQLSRAYNEVV, the figure is < -0.25; as for DNAEACYGGRRIVGRAPFPK, < -0.25; as for GRGPMRLEPTPCTQFICVAQ, < -0.25. Consider SATTRRS, for which the growth estimate is < -0.25. On to GLGRLG, for which the growth estimate was < -0.25. The value for QCSLILIVVWIRDGK was < -0.25; that for ARGR was < -0.25; that for LNTLDSVSFIGIDLGVAHCI was < -0.25. Regarding CSVSMHYALIQASETSGLQV, the growth estimate was < -0.25. For the substance PGREIQNREGGPSFILLRCH, the growth estimate was < -0.25. Take KFATLFRKGLSHPSRGFARE: the growth estimate is < -0.25. KSCGRLCRYRFICPTDTCVP: the growth estimate is < -0.25. The value for SADTGERLSKVYDTEGCPGA was < -0.25. As to DMR, the growth estimate was < -0.25. Consider MKSG, for which the growth estimate is < -0.25. Regarding AVYTLFLPAPGVPEGPSRRA, the growth estimate was < -0.25.

Take FSRDFFVA: the growth estimate was < -0.25.

AHRGP: the growth estimate is < -0.25.

SGGRFPPKDTIEMSSSGTAS: the growth estimate is < -0.25. Regarding GRM, the growth estimate was < -0.25. On to SCCNPRDRWERH, for which the growth estimate is < -0.25.

On to RLRILSYM, for which the growth estimate was < -0.25. Take AVRGVIRNGLSIFSIG: the growth estimate is < -0.25.

Turning to RWSFRCPKHEQISTASGSG, the growth estimate is < -0.25. For PIKFDEVDKFLIYRSQGSRL, the growth estimate is < -0.25. Regarding GERLGLAAARRADIMAKNPA, the growth estimate was < -0.25. Take VGWCWLSIHVTLPLEGESRA: the growth estimate is < -0.25.

Turning to ITGRDVRPCGFSKERGSITA, the growth estimate was < -0.25. The value for APEDDKV was < -0.25; that for ELNVVFDMHRLR was < -0.25; that for QYKEHPSTLAGPTDYTGRPV was 0.108. As to GSYQRHNAALFILATYSTLR, the growth estimate is < -0.25.

Regarding TGFPVLIM, the growth estimate is < -0.25. As for RTGGYAFVHHIALWSNSIPP, the growth estimate is < -0.25. On to NLDKAAHSV, for which the growth estimate was < -0.25.

AMITRMSRNWHPRVTAPRIS: the growth estimate was < -0.25. For RPSMGNSGCRSIISKRQWND, the growth estimate was < -0.25. Turning to TCLKYAMQIKPQSVKCRPAT, the growth estimate was < -0.25. As for ETSLGHEMDGDQANL, the figure is < -0.25; as for ISWFGLSTRVRMSMLSLARV, < -0.25; as for TASVLLDASIALVENRIFSY, < -0.25. On to FPGRVLRIIRA, for which the growth estimate is < -0.25.

Turning to CQSGHSRPDMWGWPRKSRVG, the growth estimate was < -0.25. The value for SSIKVLVQARSLYAA was < -0.25; that for GLGMPKSLRGKWEQENSMSG was < -0.25; that for TESPPRNLVLGRHIVFRLRC was < -0.25. As for HSGVWTRERCGQPFSTPRTN, the figure is < -0.25; as for CFKPSILVG, < -0.25. Take KSPPACTPQTPVTCQI: the growth estimate was < -0.25.

As for LRGLLEYCHATKERKMKMAT, the growth estimate was < -0.25. The value for QTIYKGSISNRQLAPFPASD was < -0.25; that for RTAGDAGTSILRAIAKASLA was < -0.25.

As to SDLRVLVLLGCFTTRSQTDG, the growth estimate was < -0.25.

In the case of GTIY, the growth estimate is -0.221. Turning to GLGSLSMLTTDSRCRMRGRK, the growth estimate is -0.245. As for AVES, the figure is < -0.25; as for YADSRSPEAT, < -0.25; as for HYFRRSCMSETVAGRRGHCP, < -0.25. With AVSSGVQHASSLIFGDGGRA, the growth estimate is < -0.25. On to LRDWWGVCLRC, for which the growth estimate was < -0.25. Take HRTSVRCSLRFDRTESGCSA: the growth estimate was < -0.25. The value for LERVVVLRLSTREGPGPGGN was < -0.25; that for DTAQLLNVIDLYRGCRRNPY was < -0.25; that for TDLLTSVHCDLGVV was < -0.25. For RLIPKGHSQVRGKETRERGR, the growth estimate is < -0.25.

On to GVQGVREIERILYR, for which the growth estimate was < -0.25. On to AGHTKGEPGYRGEPFVTDRA, for which the growth estimate is < -0.25. Turning to LKRGLQLPGQLSWNDKQRWP, the growth estimate was < -0.25. As for MMGRSTLSRHARTKPPSHRF, the figure is < -0.25; as for APVQQGLRVCFRLILCAEAI, < -0.25. Take RGKRERRT: the growth estimate was < -0.25. On to GVQLGCSRCQ, for which the growth estimate is < -0.25. As for RTEGLFRHADARLNGCHCTA, the growth estimate is < -0.25. As for WFLRVSINREIQI, the figure is < -0.25. In the case of NSGHKCSPRRTIGVRGSGVG, the growth estimate is < -0.25.

Regarding INVSISKIYPCADSPGYFCS, the growth estimate is < -0.25. Regarding HSGFSVPEGAVRTSAISLLG, the growth estimate was < -0.25. In the case of GYVELRGRLSRPATECSRAV, the growth estimate is < -0.25.

As for SQLPEPHVSETFSG, the growth estimate was -0.201. Regarding HLCQ, the growth estimate was < -0.25. Regarding MLLPRSPRGGRGS, the growth estimate is < -0.25. On to RSYVLRIGVSVA, for which the growth estimate is < -0.25. Take ELCRRGKLSTDEGLASP: the growth estimate was < -0.25. Regarding LEGCVESIPRKR, the growth estimate is < -0.25. In the case of VAREPRVGQQSASPSQSFVA, the growth estimate is < -0.25. The value for PALVGLPIRL was < -0.25; that for NSS was < -0.25; that for RIDLSSQFRTRN was < -0.25. Turning to VHKGNGTYEPLS, the growth estimate was < -0.25. As for GGLLVR, the figure is < -0.25.

As to QRGPALEPEDGRRSVAPSGQ, the growth estimate was < -0.25. For the substance NTIVDAGVLTKKEGVRMICG, the growth estimate is < -0.25. As for GDRDQGGFCRCTRCVECSSL, the growth estimate was < -0.25. Regarding RTKWLQDVSAIVNVRGFVSG, the growth estimate was < -0.25.

As for SETGSLTGSTFSSTECKCTS, the growth estimate was < -0.25. In the case of PWGSGMINRTLTNGGLPQPA, the growth estimate was < -0.25. Consider SLPA, for which the growth estimate was < -0.25.

On to KVIKLTLNPGVVNMAFCHLM, for which the growth estimate is < -0.25.
